Experimental data from article PMC3646009.
These are yes or no findings as the source states them, for the method shown. Values belong to the molecule of their own block, whether it stands above or below them.

Amino acid sequences for entries named in this document (tags omitted). Residues count along the entry.
human nesprin-1 spectrin repeat 73 (NES1SR73) (Q8NF91, residues 8416-8552): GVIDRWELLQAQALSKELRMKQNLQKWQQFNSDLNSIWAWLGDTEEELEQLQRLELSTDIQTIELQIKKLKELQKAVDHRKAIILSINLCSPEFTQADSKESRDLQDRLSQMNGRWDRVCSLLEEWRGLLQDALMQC
human nesprin-1 spectrin repeat 74 (NES1SR74) (Q8NF91, residues 8554-8667): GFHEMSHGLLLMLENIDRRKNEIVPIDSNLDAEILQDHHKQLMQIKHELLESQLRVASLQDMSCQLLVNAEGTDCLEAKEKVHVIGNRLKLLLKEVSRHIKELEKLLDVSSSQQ

Columns and labels:
Experiment in all cases: NMR translational diffusion (double stimulated echo) + 1D NMR line widths; each repeat alone in solution; 298 K; 20 mM sodium phosphate pH 7.0, 50 mM sodium chloride, 2 mM dithiothreitol, 0.02% sodium azide; protein 40-200 µM; both purified
[1] = biological target: human nesprin-1 spectrin repeat 73 (NES1SR73) (human) (UniProt Q8NF91)
[2] = biological target: human nesprin-1 spectrin repeat 74 (NES1SR74) (human) (UniProt Q8NF91)
[3] = biological target: human nesprin-2 spectrin repeat 56 (NES2SR56) (human) (UniProt Q8WXH0)
[4] = biological target: human nesprin-2 spectrin repeat 55 (NES2SR55) (human) (UniProt Q8WXH0)

Molecule: human nesprin-1 spectrin repeat 73 (NES1SR73) (from UniProt Q8NF91 8416-8552) (domain or fragment)
- binding [1]: no binding (tested: 40-200 µM)

Molecule: human nesprin-1 spectrin repeat 74 (NES1SR74) (from UniProt Q8NF91 8554-8667) (domain or fragment)
- binding [2]: no binding (tested: 40-200 µM)

The next lines start with the values.

- binding [3]: no binding (tested: 40-200 µM)
B1: human nesprin-2 spectrin repeat 56 (NES2SR56) (domain or fragment, UniProt Q8WXH0 6665-6771)
chain: DFHQLSQNLLLWLASAKNRRQKAHVTDPKADPRALLECRRELMQLEKELVERQPQVDMLQEISNSLLIKGHGEDCIEAEEKVHVIEKKLKQLREQVSQDLMALQGTQ

- binding [4]: no binding (tested: 40-200 µM)
B2: human nesprin-2 spectrin repeat 55 (NES2SR55) (domain or fragment, UniProt Q8WXH0 6529-6664)
chain: SGAFDRWEMIQAQELHNKLKIKQNLQQLNSDISAITTWLKKTEAELEMLKMAKPPSDIQEIELRVKRLQEILKAFDTYKALVVSVNVSSKEFLQTESPESTELQSRLRQLSLLWEAAQGAVDSWRGGLRQSLMQCQ
